Values quoted from earlier work in patent US20200216563A1, “HDAC6 AND PROTEIN AGGREGATION” (Friedrich Miescher Institute for Biomedical Research, priority 2017, published 2020).
Some results were stated once for a whole list of compounds, not compound by compound.

Biological target: T1, HDAC6 (Mus musculus, UniProt Q9Z2V5)
T1 construct: endogenous in cells; host or cells: mouse embryonic fibroblasts (MEFs)
T1 sequence (Q9Z2V5 1-1149): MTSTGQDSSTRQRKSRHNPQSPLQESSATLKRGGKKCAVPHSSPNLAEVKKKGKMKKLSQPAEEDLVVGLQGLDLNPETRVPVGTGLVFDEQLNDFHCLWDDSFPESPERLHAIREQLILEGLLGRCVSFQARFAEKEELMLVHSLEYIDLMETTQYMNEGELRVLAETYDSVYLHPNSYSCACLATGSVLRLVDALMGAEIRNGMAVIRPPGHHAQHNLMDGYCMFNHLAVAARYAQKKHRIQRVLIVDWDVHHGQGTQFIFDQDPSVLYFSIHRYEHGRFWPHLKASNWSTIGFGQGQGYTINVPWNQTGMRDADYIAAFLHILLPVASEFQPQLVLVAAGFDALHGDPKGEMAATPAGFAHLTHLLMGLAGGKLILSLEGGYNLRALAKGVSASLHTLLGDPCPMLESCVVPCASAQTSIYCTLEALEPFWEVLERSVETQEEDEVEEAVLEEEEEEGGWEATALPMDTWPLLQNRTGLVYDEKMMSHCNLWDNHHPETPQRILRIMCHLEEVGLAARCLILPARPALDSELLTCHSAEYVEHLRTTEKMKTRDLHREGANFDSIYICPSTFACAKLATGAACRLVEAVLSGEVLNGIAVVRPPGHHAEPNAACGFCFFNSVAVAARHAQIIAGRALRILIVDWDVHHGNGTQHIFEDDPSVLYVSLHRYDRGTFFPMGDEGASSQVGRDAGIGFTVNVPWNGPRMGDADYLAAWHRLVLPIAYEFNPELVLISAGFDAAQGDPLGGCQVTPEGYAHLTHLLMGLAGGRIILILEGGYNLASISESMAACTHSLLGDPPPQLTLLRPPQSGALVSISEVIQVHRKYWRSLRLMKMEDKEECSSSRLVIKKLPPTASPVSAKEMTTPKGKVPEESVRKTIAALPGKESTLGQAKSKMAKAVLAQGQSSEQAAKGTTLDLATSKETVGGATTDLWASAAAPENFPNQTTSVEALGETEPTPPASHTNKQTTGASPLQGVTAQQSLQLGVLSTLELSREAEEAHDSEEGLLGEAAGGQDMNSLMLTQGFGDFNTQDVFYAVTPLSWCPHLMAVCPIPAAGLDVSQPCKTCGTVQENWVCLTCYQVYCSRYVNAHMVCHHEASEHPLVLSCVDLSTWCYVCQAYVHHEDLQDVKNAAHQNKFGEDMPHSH
Conditions: MEFs; datasets of Scholz 2015 re-analysed; cited from earlier work

SMILES: CCCCOc1ccc(CC(=O)NO)cc1 [Bufexamac]
- increase in acetylation (SILAC ratio inhibitor vs control) of the 18 high confidence HDAC6 target sites (18 out of 2029): more than 2 fold
